This is one part of the list.
Molecular target: OsWRKY34 (Oryza sativa, UniProt Q0JBA9 1-250)
Experiment: protein-binding microarray (RPBM); PBS, 2% BSA, 51.3 ng/ul salmon testes DNA, 50 uM zinc acetate, 200 nM TF, 25 C, 1 h; high values mean tight binding
Conditions: protein: recombinant; tags: N-terminal polyhistidine and DsRed monomer fusion (pET32a); label: CyDye5-dUTP incorporated in the synthesized complementary strand; 3' TTTTT single-stranded linker to array surface; dsDNA, one strand shown
Procedure, shortened: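 Transcription factors were made in E. coli BL21-CodonPlus as N-terminal fusions to a polyhistidine tag and DsRed, then purified on Ni–NTA. After primer extension with Cy5-dUTP and blocking with 2% BSA, a custom Agilent array was exposed for 1 h at 25 °C to 200 nM protein in PBS, 2% BSA, salmon testes DNA and 50 µM zinc acetate. Washed arrays were scanned on an Axon 4000B, and the binding signal is per-feature fluorescence intensity in arbitrary units.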

Sequences of proteins named here, by UniProt entry; tags and fusion partners are left off.
UniProt Q0JBA9, entry or part of it: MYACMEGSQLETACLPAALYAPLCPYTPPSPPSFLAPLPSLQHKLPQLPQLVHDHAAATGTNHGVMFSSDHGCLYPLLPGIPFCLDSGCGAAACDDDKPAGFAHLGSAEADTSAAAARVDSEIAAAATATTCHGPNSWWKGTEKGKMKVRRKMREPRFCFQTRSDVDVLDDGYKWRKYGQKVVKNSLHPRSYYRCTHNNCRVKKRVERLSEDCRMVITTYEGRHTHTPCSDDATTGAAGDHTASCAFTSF

Row | Sequence | binding signal
1 | CTCCTCAAACACACCATTATTACTGTCTCACATCACATATCGGAGTCACCTAGTGCAG | 11600 fluorescence intensity (a.u.)
2 | TTTGATATGAGTGCTCGCATTTACGGCTAATTATTCTTTCCGGAGTCACCTAGTGCAG | 8550 fluorescence intensity (a.u.)
3 | GCAAGCGCTGTTGCCTGCCTGTAGCTAGCTTTTATATCGTCGGAGTCACCTAGTGCAG | 9430 fluorescence intensity (a.u.)
4 | GACCCTGCCCAGGATCATCAATACACGTTGAGGCTTCTTCCGGAGTCACCTAGTGCAG | 8570 fluorescence intensity (a.u.)
5 | GAGGATGCGAACCCCTGTACTACCGTCTTCTGCAAAAACACGGAGTCACCTAGTGCAG | 10600 fluorescence intensity (a.u.)
6 | CTTCAGTCATTTTCCATCACATCAACCTGTCATACACACACGGAGTCACCTAGTGCAG | 9770 fluorescence intensity (a.u.)
7 | TGCTGCCCCGCCAACATCGTGTTGAATCTCGTCGATATATCGGAGTCACCTAGTGCAG | 8280 fluorescence intensity (a.u.)
8 | TCTTTTCTTGGCTCCGCTTTGTTCTTGCTCTCATCTTGCTCGGAGTCACCTAGTGCAG | 11300 fluorescence intensity (a.u.)
9 | TGTCGGGTTTGTGTTGTGTTTGTGTGTGTAGTGTGAGATCCGGAGTCACCTAGTGCAG | 12700 fluorescence intensity (a.u.)
10 | ATCATAACTAGCATCCATCCCAAGCTTAGATCATTGGATACGGAGTCACCTAGTGCAG | 8030 fluorescence intensity (a.u.)
11 | CGGTCTGCTTTCTACAACACCTCGATCTCGTCTATAAATACGGAGTCACCTAGTGCAG | 10500 fluorescence intensity (a.u.)
12 | TGTGGTTTATGGTCGTGGATTAGATTTCGATCACAGTTGACGGAGTCACCTAGTGCAG | 15100 fluorescence intensity (a.u.)
13 | AGCCACGTCGTCCAGATCGCCACTCGCCCATCTCTCTCTCCGGAGTCACCTAGTGCAG | 10700 fluorescence intensity (a.u.)
14 | TTCTTGTGATGTTCTTTCTCTTATTCGTTGTCCTCACACCCGGAGTCACCTAGTGCAG | 9500 fluorescence intensity (a.u.)
15 | GCCGTTCGCTTCCCGCAATCTTGTTTCCTACGTACGACGACGGAGTCACCTAGTGCAG | 12200 fluorescence intensity (a.u.)
16 | CTCTACCTGCATCTGACCACCTCCATTGTTTCTGCAGCCTCGGAGTCACCTAGTGCAG | 8750 fluorescence intensity (a.u.)
17 | AAACCCTCTCTCTCTCTCTCTCTCACACACACACGCAAACCGGAGTCACCTAGTGCAG | 10300 fluorescence intensity (a.u.)
18 | CTCCATCGCCACTTCACTTGATTCGCCGCCGACGAACTCCCGGAGTCACCTAGTGCAG | 8350 fluorescence intensity (a.u.)
19 | CCTCCGCGTGAATCCCCGCCCCTGCCTACCTCCGCGACATCGGAGTCACCTAGTGCAG | 9160 fluorescence intensity (a.u.)
20 | CTTTGGCTTTAATTTGTGGCGTTCGTTTTCCGTGCACTAACGGAGTCACCTAGTGCAG | 15600 fluorescence intensity (a.u.)
21 | ACATCCGATCAGTTTTCGTCCCTACTTCTATATTACTATACGGAGTCACCTAGTGCAG | 12800 fluorescence intensity (a.u.)

Row | Sequence | binding signal
22 | CTTCTTGATCTCTGCTGAATTCATCTTGATTTTGGATTGACGGAGTCACCTAGTGCAG | 8240 fluorescence intensity (a.u.)
23 | AGGTGTTTGATGTTTGATGAACTCGTACTTTTTATAGTAGCGGAGTCACCTAGTGCAG | 9080 fluorescence intensity (a.u.)
24 | CACAGCCATACGCCCATACCCATACCCCGGACGCAGACGACGGAGTCACCTAGTGCAG | 8270 fluorescence intensity (a.u.)
25 | CTTCCAACTTTTCCGTCACATCGTTCCAATTTCAACCAAACGGAGTCACCTAGTGCAG | 8680 fluorescence intensity (a.u.)
26 | TCTATTTCTTTATCCTTTTGACTTTGTTCTGTACTGATGTCGGAGTCACCTAGTGCAG | 10900 fluorescence intensity (a.u.)
27 | GGTGACGGCGGCTGTCTTCTTCGTAGGGTGCGGGGTGGCTCGGAGTCACCTAGTGCAG | 8880 fluorescence intensity (a.u.)
28 | GATATCATATGCTGCCTGTAATGTATTGGATCCATCTGTACGGAGTCACCTAGTGCAG | 8230 fluorescence intensity (a.u.)
29 | TCATCAAGGCCTGTCTGTGGGACCTCCTGTTTTCGTGCCACGGAGTCACCTAGTGCAG | 9520 fluorescence intensity (a.u.)
30 | TATCCCGTACTTCGTATTTGGTTGTACACTAGTAGTACCACGGAGTCACCTAGTGCAG | 8180 fluorescence intensity (a.u.)
31 | CCACCACCGACGACTCCGACTCCGACTCCGGCTCGATCTCCGGAGTCACCTAGTGCAG | 8700 fluorescence intensity (a.u.)
32 | TCACTGAACAACCACGTTGCTGCTGGTTCTTTTGGTCAGCCGGAGTCACCTAGTGCAG | 9960 fluorescence intensity (a.u.)
33 | CCTTGCCGCGCCGTCACACCGCCGCCGCCTCCTCGCCATGCGGAGTCACCTAGTGCAG | 8530 fluorescence intensity (a.u.)
34 | TTCTCTATACTCTTTGTATTGCCTAGTTGTCTTCTGTGGACGGAGTCACCTAGTGCAG | 10400 fluorescence intensity (a.u.)
35 | TGTTGCTGTGTTCGATCGACATGCTCTGCTTCTGCTTCTGCGGAGTCACCTAGTGCAG | 9170 fluorescence intensity (a.u.)
36 | GTCCGTGGGGCCCACACCAAAGACCGTTGACTTGACTAGTCGGAGTCACCTAGTGCAG | 12100 fluorescence intensity (a.u.)
37 | GTAGGGGCGGGAGGGGAGGCGTGGTGGCGCCGGGCCGGCGCGGAGTCACCTAGTGCAG | 14900 fluorescence intensity (a.u.)
38 | CGGTGTATTTGTATGGTTTTCGGGCCTAGTTTTACTTATACGGAGTCACCTAGTGCAG | 12000 fluorescence intensity (a.u.)
39 | GCCGATCGGTCTTTTGTCTTTTCTCTAACTCTATCAGACCCGGAGTCACCTAGTGCAG | 8740 fluorescence intensity (a.u.)
40 | CCCATCCTCCCACTCGGCCACTCCCACTCCCTCTCCCTCTCGGAGTCACCTAGTGCAG | 8400 fluorescence intensity (a.u.)
41 | CTCTATCACGATCTCTATCTGATTCGTCGTGTCCTTATTTCGGAGTCACCTAGTGCAG | 9540 fluorescence intensity (a.u.)
42 | ACGGACGGTCAAACGTTGAACATGAACAGTACAAAACTACCGGAGTCACCTAGTGCAG | 8300 fluorescence intensity (a.u.)

In another format: results already given.
Row	Sequence	binding signal
13	AGCCACGTCGTCCAGATCGCCACTCGCCCATCTCTCTCTCCGGAGTCACCTAGTGCAG	10700 fluorescence intensity (a.u.)
14	TTCTTGTGATGTTCTTTCTCTTATTCGTTGTCCTCACACCCGGAGTCACCTAGTGCAG	9500 fluorescence intensity (a.u.)

Nothing new here: an excerpt of the list.
Row | Sequence | binding signal
30 | TATCCCGTACTTCGTATTTGGTTGTACACTAGTAGTACCACGGAGTCACCTAGTGCAG | 8180 fluorescence intensity (a.u.)
31 | CCACCACCGACGACTCCGACTCCGACTCCGGCTCGATCTCCGGAGTCACCTAGTGCAG | 8700 fluorescence intensity (a.u.)

Reference: publication PMC7819943, “Rice protein-binding microarrays: a tool to detect cis-acting elements near promoter regions in rice”
